Assay results published in the supplement of paper PMC12819154, “High-throughput peptide-centric local stability assay extends protein–ligand identification to membrane proteins, tissues and bacteria” (Nature Structural & Molecular Biology, 2025).
This is one part of the list. Small differences around the control level are noise.

The chains behind the UniProt entries cited, without tags or fusion partners. Where a name states a change or a piece, a line headed by the entry shows the natural chain unless it says otherwise.
UniProt P0AEZ1: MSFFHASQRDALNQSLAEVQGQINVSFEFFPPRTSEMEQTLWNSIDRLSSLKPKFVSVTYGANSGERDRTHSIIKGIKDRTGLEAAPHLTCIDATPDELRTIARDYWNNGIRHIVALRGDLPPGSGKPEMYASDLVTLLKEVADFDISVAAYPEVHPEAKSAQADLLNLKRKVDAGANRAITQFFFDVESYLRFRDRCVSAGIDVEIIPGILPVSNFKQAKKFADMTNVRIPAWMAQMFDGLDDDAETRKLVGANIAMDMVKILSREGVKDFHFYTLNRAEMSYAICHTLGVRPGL

Tests used:
Test in all cases: log2 fold change of tryptic peptide abundance, ligand vs vehicle (limited proteolysis) (log2 ratio); higher = more trypsin-susceptible (destabilized)
UniProt P0AES0 = target: T1, UniProt P0AES0; conditions: peptide sequence: ESDIEPLIVVK; peptide start residue: 608; ligand concentration: 10 uM; sample: E. coli crude lysate
T1 sequence (whole entry): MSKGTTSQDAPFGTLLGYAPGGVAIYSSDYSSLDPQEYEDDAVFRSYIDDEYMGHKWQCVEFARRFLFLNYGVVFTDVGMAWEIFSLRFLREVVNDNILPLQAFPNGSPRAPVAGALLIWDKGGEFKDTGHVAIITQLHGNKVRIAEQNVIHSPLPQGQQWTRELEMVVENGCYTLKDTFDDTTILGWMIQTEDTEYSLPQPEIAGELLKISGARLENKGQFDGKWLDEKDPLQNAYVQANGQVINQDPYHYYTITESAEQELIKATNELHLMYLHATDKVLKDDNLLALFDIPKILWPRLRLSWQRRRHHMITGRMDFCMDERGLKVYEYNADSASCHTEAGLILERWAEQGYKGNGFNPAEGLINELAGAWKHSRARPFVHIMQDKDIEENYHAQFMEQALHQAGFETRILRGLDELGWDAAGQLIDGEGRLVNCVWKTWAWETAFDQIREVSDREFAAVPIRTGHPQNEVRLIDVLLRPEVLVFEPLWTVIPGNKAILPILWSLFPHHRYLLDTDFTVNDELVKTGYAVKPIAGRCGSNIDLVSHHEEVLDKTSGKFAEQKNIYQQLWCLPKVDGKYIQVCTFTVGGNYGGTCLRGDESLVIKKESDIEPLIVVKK

UniProt P0AEX5 = target: T2, UniProt P0AEX5; conditions: peptide sequence: THLNFQR; peptide start residue: 201; ligand concentration: 10 uM; sample: E. coli crude lysate
T2 sequence (whole entry): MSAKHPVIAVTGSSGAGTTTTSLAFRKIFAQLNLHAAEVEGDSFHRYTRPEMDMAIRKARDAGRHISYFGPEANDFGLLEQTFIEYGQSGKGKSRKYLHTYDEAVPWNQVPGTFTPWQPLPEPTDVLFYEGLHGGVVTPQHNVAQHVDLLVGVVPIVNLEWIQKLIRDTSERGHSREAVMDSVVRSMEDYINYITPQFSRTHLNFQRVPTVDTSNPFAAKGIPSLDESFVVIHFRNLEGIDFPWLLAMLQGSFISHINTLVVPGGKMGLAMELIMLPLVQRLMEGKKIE

UniProt P0AEZ1 = conditions: peptide sequence: DFHFYTLNR; peptide start residue: 271; ligand concentration: 10 uM; sample: E. coli crude lysate

CC1(C)S[C@@H]2[C@H](NC(=O)[C@H](N)c3ccccc3)C(=O)N2[C@H]1C(=O)O [ampicillin]
log2 fold change (UniProt P0AES0): -0.252
log2 fold change (UniProt P0AEX5): -0.158
log2 fold change (UniProt P0AEZ1): 0.494
